Results on one molecule are retold here after patent US5162203A, “Methods of measuring isozymes and isozyme classes of alcohol dehydrogenase” (President and Fellows of Harvard College, priority 1989, dated 1992).

The data set in a line: Class I and Class II ADH levels in human sera. The class given is biochemical.

B1: Class II ADH: human liver Class II alcohol dehydrogenase (protein, UniProt P08319 1-380, looked up)
All-trans-retinol …: MGTKGKVIKCKAAIAWEAGKPLCIEEVEVAPPKAHEVRIQIIATSLCHTDATVIDSKFEGLAFPVIVGHEAAGIVESIGPGVTNVKPGDKVIPLYAPLCRKCKFCLSPLTNLCGKISNLKSPASDQQLMEDKTSRFTCKGKPVYHFFGTSTFSQYTVVSDINLAKIDDDANLERVCLLGCGFSTGYGAAINNAKVTPGSTCAVFGLGGVGLSAVMGCKAAGASRIIGIDINSEKFVKAKALGATDCLNPRDLHKPIQEVIIELTKGGVDFALDCAGGSETMKAALDCTTAGWGSCTFIGVAAGSKGLTIFPEELIIGRTINGTFFGGWKSVDSIPKLVTDYKNKKFNLDALVTHTLPFDKISEAFDLMNQGKSVRTILIF
Regarding B1, where the note is “17 healthy volunteers”, the “normal serum ADH activity” value stood at 15.3 nM/min. For the same molecule, the “concentration in normal human serum” value (based on kcat of 1500 min^-1) worked out at 0.51 ± 0.22 nM. The “molar excess of Class II over Class I ADH” value (sera with elevated ADH) was 2-3 fold. In addition, the “concentration in serum sample of FIG. 7” value (serum sample used for inhibition profile) is ~ 0.1 μM.
